About 25 (2%) of roughly 1,600 compounds were called active. Inconclusive results (about 7%) are left out. Calls follow the shape of the dose curve; as a rule, active = well fitted inhibition curve with a large enough effect; inconclusive = small, poorly fitted or top-dose-only effect, or effect the other way; inactive = no such curve, though single readings can be large or run the other way. Some of the results follow.
What follows are molecules tested against Runt-related transcription factor 1 (Homo sapiens) + Core-binding factor subunit beta (Homo sapiens) (UniProt Q01196+Q13951) (assay: qHTS Assay for Compounds Blocking the Interaction Between CBF-beta and RUNX1 for the Treatment of Acute Myeloid Leukemia: Hit Validation with Orthogonal Assay). Details: CBFbeta-RUNX1 binding orthogonal assay, biochemical; series mostly up to 41 µM; activity change, negative = inhibition: at the top concentration.
Outline: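 Compound was incubated for 30 min with biotin-RUNX1 plus His6-CBF-beta at 30 nM per protein. Binding was then detected by TR-FRET between terbium anti-His antibody and 5 nM streptavidin-XL665, read after 90 min, in the same buffer as the AlphaScreen primary assay.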
% is scaled to controls: 0 for no effect and ±100 for the full control effect.

Chains of the proteins cited; added tags and fusions are not shown.
UniProt Q01196, whole entry, looked up: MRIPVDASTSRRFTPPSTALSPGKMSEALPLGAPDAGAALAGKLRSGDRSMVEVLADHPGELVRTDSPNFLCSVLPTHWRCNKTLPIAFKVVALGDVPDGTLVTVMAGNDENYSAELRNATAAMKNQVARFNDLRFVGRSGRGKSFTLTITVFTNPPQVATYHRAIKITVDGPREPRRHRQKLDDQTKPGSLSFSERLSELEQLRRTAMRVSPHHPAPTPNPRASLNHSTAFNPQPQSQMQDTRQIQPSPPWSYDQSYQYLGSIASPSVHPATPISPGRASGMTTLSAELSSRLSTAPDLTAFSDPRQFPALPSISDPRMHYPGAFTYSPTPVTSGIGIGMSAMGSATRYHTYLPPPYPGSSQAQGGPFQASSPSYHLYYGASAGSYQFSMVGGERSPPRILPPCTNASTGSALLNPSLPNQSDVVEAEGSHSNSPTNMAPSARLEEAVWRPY
UniProt Q13951, whole entry, looked up: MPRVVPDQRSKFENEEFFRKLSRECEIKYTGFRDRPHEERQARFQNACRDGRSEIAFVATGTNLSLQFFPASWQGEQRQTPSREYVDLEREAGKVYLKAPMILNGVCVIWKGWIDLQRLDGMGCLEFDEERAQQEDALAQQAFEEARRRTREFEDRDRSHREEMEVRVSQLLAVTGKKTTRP

Activity change, negative = inhibition, inactive:
Cc1sc2nc(COC(=O)c3ccc(Cl)c(N)c3)[nH]c(=O)c2c1C -1.95%, CN(C)c1cc(-c2ccc(Br)cc2)oc(=O)c1Cl 20.4%, Cc1ccc(N=CC2=C(O)CC(c3ccccc3Cl)CC2=O)cc1 (stereo not given) -8.6%, CN1c2ccccc2C(=O)/C(=C\Nc2ccc(F)cc2F)S1(=O)=O 1.93%, Cc1oc(S(=O)(=O)N2CCCC2)cc1C(=O)Nc1ccc(F)cc1 0.93%, CCOC(=O)N1CCC(NS(=O)(=O)c2ccc(C)cc2)CC1 -13.3%, O=S(=O)(c1ccc(F)cc1F)N1CCCN(c2ccc(C(F)(F)F)cn2)CC1 5.71%, O=C(O)CCNC(=O)CCCn1nnc2ccccc2c1=O -4.66%, C/C(=N/NC(=O)CNC(=O)Cc1ccccc1)c1ccc(Cl)cc1 -8.37%, CC(C)N(CCn1cnc2c([nH]c3ccccc32)c1=O)C(C)C 7.83%, S=C(N/N=C/c1cccc2ccccc12)Nc1cccc(Cl)c1 -11.2%, CCn1cc(C(c2ccccc2)C(C(C)=O)[N+](=O)[O-])c2ccccc21 (stereo not given) 13.1%, [O-]/[N+](=C\C=C\c1ccccc1)c1ccccc1 10%, O=C1CCCN1CCCNC(=S)Nc1ccccc1 4.48%, CCCOc1ccc(-c2nc(-c3ccc([N+](=O)[O-])cc3)cs2)cc1 -13.2%, CCOc1nc2c(c(-c3cccs3)c1C#N)Cc1ccccc1-2 -7.12%, CCOc1ccc(NC(=O)CSc2ccc(-c3ccccn3)nn2)cc1 11% [at 82.4 µM], Nc1nc(Nc2ccccc2)nc(NCCO)c1[N+](=O)[O-] 42.1%, COc1ccccc1Cc1nc(-c2cccnc2)no1 7.3%, O=C(O)COCC(=O)N1CCN(C2c3ccccc3-c3ccccc32)CC1 4.03%, CCOc1ccc(N2C(=O)S/C(=C\c3cc(OC)c(OC)c(OC)c3)C2=O)cc1 15%, N#CC(C(=O)c1ccccc1Cl)=C1SCCCS1 21.3%, COc1c(NC(C)=O)c2ccccc2c2ccccc12 9.47%, O=C1CCN(S(=O)(=O)c2ccc(Cl)cc2)CCN1 0.514%, CCOC(=O)C(=CNc1cccnc1Oc1ccc(C)c2c1CCC2)C(=O)OCC -4.69%, CCC(=O)N1N=C(c2ccc(C)cc2)CC1c1ccco1 (stereo not given) -3.02%, COc1ccc(-c2c[n+]3c(n2-c2ccc(C)cc2)CCCCC3)cc1 -8.18%, Cc1ccc(C)c(C(=O)CCC(=O)O)c1 10.9%, O=C(Nc1ccc(Nc2ccncc2)cc1)c1ccc(Nc2ccnc3ccc([N+](=O)[O-])cc23)cc1 -7.13%, c1ccc(-c2nnc(N3CCN(c4ccccc4)CC3)nc2-c2ccccc2)cc1 -7.99%, Cc1ccccc1NC(=S)Nc1ccccn1 -11.9%, CCc1c(-c2ccccc2)[n+](=O)c2c(n1[O-])CCC2 9.26%, CC(C)(C)c1cc(NCc2ccccn2)n2ncc(-c3ccc(Cl)cc3)c2n1 -2.69%, CCC(C)NC(=O)CC(C)C (stereo not given) 0.673%, O=C(Oc1cc(=O)oc2c1c(=O)n1c3c(cccc23)CC1)c1ccc(F)cc1 4.17%, O=C(c1ccc(Cn2cc(Cl)c([N+](=O)[O-])n2)cc1)N1CCN(Cc2ccccc2)CC1 31.6%, c1ccc(-n2ncc3cccnc32)cc1 -6.47%, Nc1ccc(C(=O)Nc2ccc(Nc3ccncc3)cc2)cc1 4.77%, COc1cccc(N/C(=N/C(=S)Nc2ccc(C)cc2C)Nc2nc(C)cc(C)n2)c1 -7.98%, Cc1nn2c(NCCCN(C)C)c3c(nc2c1-c1ccccc1)CCCC3 7.44%, CCCN(CCC)CC(=O)N1CC(=O)Nc2ccccc21 4.55%, COC(=O)c1sccc1NC(=O)CC1C(=O)NCCN1C(=O)c1ccc(C)c(C)c1 (stereo not given) 6.69%, O=C(COc1ccc([N+](=O)[O-])cc1Cl)N1CCOCC1 21.4%, Nn1c(SCC(=O)Nc2ccc(S(N)(=O)=O)cc2)nnc1C(F)(F)F 7.61%, Cc1nc(SCc2cccc(F)c2)c2oc3ccccc3c2n1 -3.14%, O=C(CN1CCN(C(c2ccccc2)c2ccccc2)CC1)N1N=CCC1c1ccccc1 (stereo not given) -8.56%, Cc1onc(-c2c(F)cccc2Cl)c1C(O)c1ccc(F)cc1 (stereo not given) -0.673%, CC(C)(C)c1cc2nc(N)nc(N)n2n1 2.45%, CCOP(=O)(c1ccc(N(C)C)cc1)C(O)c1cccnc1 (stereo not given) 21.3%, Cc1ccc2cc(NC(=O)Cc3ccccc3)ccc2n1 3.06%, CC(=O)c1sc(C(C)(C)C)cc1NC(=O)CCC(=O)O 10.2%, O=C1CCC(c2ccccc2)(c2ccccc2)CC1 11.9%, COC(=O)c1sccc1S(=O)(=O)Nc1ccc(Cl)cc1 -0.807%, Cc1[nH]n(-c2ccccc2)c(=O)c1C=Nc1cccc(F)c1 15.8%, C/C(Cc1ccccc1)=N\NC(=O)CNC(=O)c1ccc(Cl)cc1Cl -5.63%, CNS(=O)(=O)c1cc(Cl)ccc1Sc1ccccc1C(=O)O -9.33%, CCC(=O)NC1(C(F)(F)F)C(=O)Nc2c1c(=O)[nH]c(=O)n2CC(C)C (stereo not given) -5.27%, NC(=O)c1ccc(NC(=O)COC(=O)/C=C/c2ccc3c(c2)OCO3)cc1 21.1%, Cc1ccc(C(=O)/C=C/N(C)C)cn1 3.88%, Cc1nc(N)nc(Nc2ccc(C#N)cc2)c1Br -1.3%, CCCN1CN=C(Nc2nc3ccccc3o2)NC1 5.86%, CSc1ccc(NC(=O)Nc2cc(C)ccn2)cc1 -0.758%, CCCC(=O)Nc1ccc2c(c1)nc(CCNC(=O)c1ccco1)n2C 4.69%, O=C(Nc1ccccc1)N1CCN(C2c3ccccc3-c3ccccc32)CC1 -4.97%, CCC1=NN(C(=O)Cc2ccc([N+](=O)[O-])cc2)C(O)(C(F)(F)F)C1 (stereo not given) 12.9%, COc1ccc(NC(=O)O/N=C/c2ccccc2Cl)cc1 3.39%, O=C(OCC(O)COC(=O)c1cccnc1)c1cccnc1 -0.453%, COc1ccc(Nc2cc(C)nc(NCc3ccccc3)n2)cc1 -3.57%, Cc1ccc(C)c(-n2c(-c3ccc(Br)cc3)csc2=NC(=O)c2ccccc2F)c1 15.8%, Clc1ccc(-c2nnc(N3CCOCC3)o2)cc1 -5.87%, Cn1cccc1/C=C(\C#N)C(N)=S 21.6%, CCCn1nnc(NC(=O)c2ccc3c(c2)OCO3)n1 3.68%, Cn1nc(-c2ccccc2)cc1NS(=O)(=O)c1ccc(C#N)cc1 -0.807%, COC(=O)C1=C(N)Oc2c(oc(CO)cc2=O)C1c1ccc(F)cc1 (stereo not given) 9%, C/C(Cc1ccccc1)=N\NC(=O)CNC(=O)COc1cccc(C)c1 -8.61%

— PubChem BioAssay AID504375 (National Center for Advancing Translational Sciences (NCATS), 2011)
